The assay addresses pyruvate kinase M2 (PKM2), endogenous (human (endogenous in A549 and H1299)) (UniProt P14618). Put plainly: co-IP; endogenous proteins in A549 and H1299 lysates; IP lysis buffer, 2 μg antibody and Protein A/G PLUS-Agarose at 4 °C overnight, five washes, western blot. In general terms: A western blot detects proteins with antibodies after separation by electrophoresis.

Chains of the proteins cited; added tags and fusions are not shown. Lines headed by an entry give the natural chain unless they say otherwise; changes in a name come on top.
UniProt P14618: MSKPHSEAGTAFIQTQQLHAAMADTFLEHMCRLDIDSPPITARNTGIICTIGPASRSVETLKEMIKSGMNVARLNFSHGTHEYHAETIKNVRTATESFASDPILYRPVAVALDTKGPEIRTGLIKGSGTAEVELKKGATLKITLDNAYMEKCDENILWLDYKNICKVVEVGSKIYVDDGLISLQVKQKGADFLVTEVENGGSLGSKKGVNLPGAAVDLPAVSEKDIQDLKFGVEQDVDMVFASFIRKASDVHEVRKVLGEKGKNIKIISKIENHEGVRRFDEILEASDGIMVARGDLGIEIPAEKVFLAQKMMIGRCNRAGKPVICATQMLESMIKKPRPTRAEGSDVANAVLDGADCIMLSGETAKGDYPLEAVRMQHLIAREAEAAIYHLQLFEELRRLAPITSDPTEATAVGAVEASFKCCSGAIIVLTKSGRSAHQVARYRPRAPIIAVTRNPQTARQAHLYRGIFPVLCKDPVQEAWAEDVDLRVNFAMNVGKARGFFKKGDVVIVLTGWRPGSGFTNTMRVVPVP
UniProt P67775: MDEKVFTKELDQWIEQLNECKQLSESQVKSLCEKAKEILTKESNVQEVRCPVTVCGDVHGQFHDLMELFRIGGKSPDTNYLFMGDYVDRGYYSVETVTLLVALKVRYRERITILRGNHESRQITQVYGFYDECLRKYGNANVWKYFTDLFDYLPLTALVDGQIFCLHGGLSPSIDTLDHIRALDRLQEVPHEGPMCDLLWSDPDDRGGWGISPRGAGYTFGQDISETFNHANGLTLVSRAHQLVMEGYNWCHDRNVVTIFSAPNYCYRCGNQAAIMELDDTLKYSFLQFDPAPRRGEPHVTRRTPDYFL

These are yes or no findings as the source states them, for the method shown. Binding seen in cells or lysates may run through a third protein. Binding calls can cover weak binding; strength is not graded here.

Take “PP2AC, endogenous (from UniProt P67775) (enzyme)”: the binding result is recorded as “binds”.

The values are drawn from publication PMC10847417.
